According to paper PMC8748641:
Results are given in words; binding and its absence hold for the method and conditions named. For some of these results: Binding seen in cells or lysates may run through a third protein. Some results given as binding are weak or reduced against the parent protein; the word gives no strength. Where a sequence is shown, tags or fusion partners need not be part of it. Blank lines part the entries; values can stand above or below the binder they belong to.

Tests used:
[1] = molecular target: T1, MSCS-LIKE 8 (MSL8) fused to the C-terminal half of yeast ubiquitin (MSL8-Cub) (Arabidopsis thaliana) (UniProt F4IME2); assay: two-hybrid; split-ubiquitin (dual-membrane) yeast two-hybrid; MSL8-Cub as bait, NubG fusions as prey; growth assay (Dualsystem Biotech)
T1 sequence: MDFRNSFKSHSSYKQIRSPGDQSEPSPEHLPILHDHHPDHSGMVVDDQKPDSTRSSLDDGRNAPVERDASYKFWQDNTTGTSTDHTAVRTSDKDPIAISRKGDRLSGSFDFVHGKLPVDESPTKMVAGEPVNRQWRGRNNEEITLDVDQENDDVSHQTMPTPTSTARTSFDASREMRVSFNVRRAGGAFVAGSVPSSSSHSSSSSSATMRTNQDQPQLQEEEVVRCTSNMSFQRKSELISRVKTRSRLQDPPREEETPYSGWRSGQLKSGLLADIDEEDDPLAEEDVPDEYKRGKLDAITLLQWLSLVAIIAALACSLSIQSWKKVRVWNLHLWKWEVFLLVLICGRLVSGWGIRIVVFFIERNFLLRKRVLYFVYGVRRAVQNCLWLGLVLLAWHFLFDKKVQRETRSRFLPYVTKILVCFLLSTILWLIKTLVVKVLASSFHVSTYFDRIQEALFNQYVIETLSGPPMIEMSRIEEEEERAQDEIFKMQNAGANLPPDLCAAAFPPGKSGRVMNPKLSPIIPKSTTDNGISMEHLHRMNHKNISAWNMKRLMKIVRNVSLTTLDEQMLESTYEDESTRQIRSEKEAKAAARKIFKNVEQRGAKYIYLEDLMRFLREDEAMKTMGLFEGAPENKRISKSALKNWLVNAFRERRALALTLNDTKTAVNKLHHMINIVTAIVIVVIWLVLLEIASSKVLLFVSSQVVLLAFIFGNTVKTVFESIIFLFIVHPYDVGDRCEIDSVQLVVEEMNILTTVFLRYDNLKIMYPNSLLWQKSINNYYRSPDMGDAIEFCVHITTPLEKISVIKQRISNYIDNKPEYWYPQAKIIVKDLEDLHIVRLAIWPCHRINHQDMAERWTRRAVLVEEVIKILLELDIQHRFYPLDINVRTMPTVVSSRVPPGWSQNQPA

[2] = molecular target: T2, GFP-SYP72 (pSYP72:GFP-SYP72, Arabidopsis pollen) (Arabidopsis thaliana) (UniProt Q94KK6); assay: co-IP; GFP-trap on extracts of Arabidopsis flower buds containing mature pollen that express both proteins; 0.1 M Tris-HCl pH 7.4, 150 mM NaCl, 0.5% NP-40; blot with anti-Myc
T2 sequence: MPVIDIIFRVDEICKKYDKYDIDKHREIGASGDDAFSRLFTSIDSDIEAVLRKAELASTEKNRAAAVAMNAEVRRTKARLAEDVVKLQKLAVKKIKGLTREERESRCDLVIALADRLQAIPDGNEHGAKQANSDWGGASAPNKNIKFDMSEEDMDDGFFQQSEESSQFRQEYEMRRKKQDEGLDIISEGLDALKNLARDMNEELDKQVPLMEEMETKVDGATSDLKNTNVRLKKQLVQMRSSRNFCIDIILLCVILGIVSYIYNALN

[3] = molecular target: T3, GFP-SYP72 (35S:GFP-SYP72, N. benthamiana leaves) (Arabidopsis thaliana) (UniProt Q94KK6); assay: co-IP; GFP-trap on total protein of N. benthamiana leaves transiently coexpressing both proteins; 0.1 M Tris-HCl pH 7.4, 150 mM NaCl, 0.5% NP-40; blot with anti-Myc
T3 sequence: T2 sequence

- binding [1]: no binding
B1: Qc-SNARE SYP52 fused to NubG (protein, UniProt Q94KK7 1-233)
chain: MASSSDPWMREYNEALKLSEDINGMMSERNASGLTGPDAQRRASAIRRKITILGTRLDSLQSLLVKVPGKQHVSEKEMNRRKDMVGNLRSKTNQVASALNMSNFANRDSLFGTDLKPDDAINRVSGMDNQGIVVFQRQVMREQDEGLEKLEETVMSTKHIALAVNEELTLQTRLIDDLDYDVDITDSRLRRVQKSLALMNKSMKSGCSCMSMLLSVLGIVGLALVIWLLVKYL

- binding [2]: binds
B2: MSL8-6×Myc (LAT52:MSL8-6×Myc, Arabidopsis pollen) (protein, UniProt F4IME2 1-908)
chain: T1 sequence

- binding [3]: binds
B3: MSL8-6×Myc (35S:MSL8-6×Myc, N. benthamiana leaves) (protein, UniProt F4IME2 1-908)
chain: T1 sequence

- binding [1]: binds
B4: SYNTAXIN OF PLANTS 72 (SYP72) fused to the N-terminal half of yeast ubiquitin NubG (NubG-SYP72) (protein, UniProt Q94KK6 1-267)
chain: T2 sequence
